Data as given in PubChem BioAssay AID743121 (NCATS, 2013)
In all, the deposit lists about 26,000 reagents; below is a random part of them. In the full data, 167 (0.63%) were called active. 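Calls are per gene from RSA p-values that are not deposited; an individual active-marked siRNA can sensitise only weakly.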 Reagents against one gene are numbered here.

Screen: 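Genes whose silencing strengthens cell killing by camptothecin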 (primary screen)
Cell system: MDA-MB-231 cells, a human breast cancer line
Reagent: single siRNA against human genes, 20 nM siRNA (0.8 pmol per well)
Timing: 120 h (drug added 48 h after transfection, read 72 h later)
Challenge: camptothecin 20 nM (about EC30) for 72 h; vehicle 0.1% DMSO in parallel plates
Detection: 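CellTiter-Glo ATP signal, scaled to control siRNA as percent viability; sensitisation given as log2 of untreated divided by camptothecin-treated viability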
Scale: log2 vehicle/camptothecin viability: higher = stronger sensitisation to camptothecin; viability with camptothecin and viability without drug: higher = more viable cells
Hit rule: 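Active genes have an RSA gene-level p-value below 0.001, computed from the ratios of their separate siRNAs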

no.	target	siRNA no.	log2 vehicle/camptothecin viability	viability with camptothecin (% of control)	viability without drug (% of control)	Call
1	EFNA2 (ephrin A2)	1	-0.163	43.6	39	inactive
2	EFNA2 (ephrin A2)	2	-0.191	98.9	86.7	inactive
3	EFNA2 (ephrin A2)	3	-0.209	99.8	86.4	inactive
4	HTR3A (5-hydroxytryptamine receptor 3A)	1	0.187	51.7	58.8	inactive
5	HTR3A (5-hydroxytryptamine receptor 3A)	2	0.225	79	92.3	inactive
6	HTR3A (5-hydroxytryptamine receptor 3A)	3	-0.313	77.4	62.3	inactive
7	HTR3A (5-hydroxytryptamine receptor 3A)	4	-0.0337	44.4	43.4	inactive
8	CD1A (CD1a molecule)	1	-0.0593	103	99.3	inactive
9	CD1A (CD1a molecule)	2	0.103	104	112	inactive
10	CD1A (CD1a molecule)	3	-0.0321	107	104	inactive
11	CD1A (CD1a molecule)	4	0.533	49.7	72	inactive
12	AIMP1	1	-0.146	117	106	inactive
13	AIMP1	2	-0.151	101	91.1	inactive
14	AIMP1	3	-0.39	70.3	53.6	inactive
15	AIMP1	4	0.313	70.9	88.1	inactive

The list goes on (5 carried over from the part before).
no.	target	siRNA no.	log2 vehicle/camptothecin viability	viability with camptothecin (% of control)	viability without drug (% of control)	Call
11	CD1A (CD1a molecule)	4	0.533	49.7	72	inactive
12	AIMP1	1	-0.146	117	106	inactive
13	AIMP1	2	-0.151	101	91.1	inactive
14	AIMP1	3	-0.39	70.3	53.6	inactive
15	AIMP1	4	0.313	70.9	88.1	inactive
16	IL36RN (interleukin 36 receptor antagonist)	1	-0.557	57.2	38.9	inactive
17	IL36RN (interleukin 36 receptor antagonist)	2	0.228	43	50.4	inactive
18	IL36RN (interleukin 36 receptor antagonist)	3	-0.168	65.5	58.3	inactive
19	IL36RN (interleukin 36 receptor antagonist)	4	-0.111	59.5	55.1	inactive
20	OR2T12 (olfactory receptor family 2 subfamily T member 12)	1	-0.495	121	85.9	inactive
21	CYP27A1 (cytochrome P450 family 27 subfamily A member 1)	1	-0.14	77.2	70	inactive
22	CYP27A1 (cytochrome P450 family 27 subfamily A member 1)	2	-0.105	108	100	inactive
23	CYP27A1 (cytochrome P450 family 27 subfamily A member 1)	3	-0.258	59.4	49.7	inactive
24	CYP27A1 (cytochrome P450 family 27 subfamily A member 1)	4	-0.114	62.5	57.7	inactive
25	ITGB3BP (integrin subunit beta 3 binding protein)	1	0.0745	113	119	inactive
26	ITGB3BP (integrin subunit beta 3 binding protein)	2	-0.0111	92.8	92	inactive
27	ITGB3BP (integrin subunit beta 3 binding protein)	3	-0.401	29.8	22.6	inactive
28	DNMT3B (DNA methyltransferase 3 beta)	1	0.119	72.2	78.4	inactive
29	DNMT3B (DNA methyltransferase 3 beta)	2	-0.0548	84.7	81.5	inactive
30	DNMT3B (DNA methyltransferase 3 beta)	3	0.641	31.9	49.8	inactive
31	DNMT3B (DNA methyltransferase 3 beta)	4	-0.121	50.1	46.1	inactive
32	GNB1L (G protein subunit beta 1 like)	1	-0.118	43	39.6	inactive
33	GNB1L (G protein subunit beta 1 like)	2	-0.0872	99.6	93.7	inactive
34	GNB1L (G protein subunit beta 1 like)	3	0.265	30.9	37.2	inactive
35	GNB1L (G protein subunit beta 1 like)	4	-0.514	95.1	66.6	inactive
36	CDKN2C (cyclin dependent kinase inhibitor 2C)	1	-0.106	77.5	72	inactive
37	CDKN2C (cyclin dependent kinase inhibitor 2C)	2	-0.411	116	87.1	inactive
38	CDKN2C (cyclin dependent kinase inhibitor 2C)	3	-0.18	114	100	inactive
39	CDKN2C (cyclin dependent kinase inhibitor 2C)	4	-0.0918	104	97.7	inactive
40	NCOA1 (nuclear receptor coactivator 1)	1	0.0562	54.6	56.8	inactive
41	NCOA1 (nuclear receptor coactivator 1)	2	0.099	74.4	79.7	inactive
42	NCOA1 (nuclear receptor coactivator 1)	3	-0.413	93.5	70.2	inactive
43	NCOA1 (nuclear receptor coactivator 1)	4	-0.429	93.4	69.3	inactive
44	FES (FES proto-oncogene, tyrosine kinase)	1	-0.145	49.4	44.7	inactive
45	FES (FES proto-oncogene, tyrosine kinase)	2	-0.348	78	61.3	inactive
46	FES (FES proto-oncogene, tyrosine kinase)	3	-0.166	65.9	58.8	inactive
47	FES (FES proto-oncogene, tyrosine kinase)	4	0.275	25.6	31	inactive
